Source: PubChem BioAssay AID1347423 (Functional Genomics Laboratory (NCATS/FGL), 2020)
The campaign covered roughly 52,000 sequences. About 210 (0.4%) were called active.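 How the source made its calls: active means gene whose silencing raises cell survival under the drug, median off-target-corrected z-score across its silencing RNAs 2 or more; inactive means the rest.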 Some of the results follow.

assay: Resistance to Poly (ADP-Ribose) Polymerase inhibitor: Gene Identification via Genome-wide siRNA Screen; details: mouse BRCA2 R2336H ES cells, olaparib, CellTiter-Glo viability; hits give high values
In short: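 Genome-wide siRNA screen (3 siRNAs/gene, 20 nM) in mouse ES cells carrying hypomorphic BRCA2 R2336H; olaparib 500 nM added 48 h post-transfection, CellTiter-Glo viability 72 h later. Normalized to plate-median negative control; MAD z-scores, gene median, seed-adjusted.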

Sequence | z-score
GCCAUUUGUCCACAAAAUGTT against 2210023G05Rik | inactive: -0.552
GGAAGUUAUCAACAUAGUUTT against Ern1 | inactive: -0.237
GCGUAGAGACAAAGUAGAATT against Gpr141 | inactive: 2.86
GGUGUCAUUCAACUUGCAUTT against Rnase10 | inactive: 0.422
CGGAAUAUAGAAUGAAACCTT against Cd200r3 | inactive: -0.737
GGAAACUUUUGGAAGACUATT against Ptdsr | inactive: 1.59
GGAUUUUGUCGGCAAGGCCTT against 2310035K24Rik | inactive: 0.982
CCUUAUGGAUUUAGCAUCATT against Lamb3 | inactive: 0.918
GGAACAGCAUGCUUACAUUTT against Ugt1a9 | inactive: -0.956
GGGCAUGUAUAUAAUGUUCTT against Kifc3 | inactive: -0.221
GCUGAAGUGUGUCACACGUTT against 2410001C21Rik | inactive: 0.0492
GGAUGUGUACAAUCGUACCTT against C730027E14Rik | inactive: 0.154
UCCCUAUCACUUGAGUUUUTT against 4921509E05Rik | inactive: 0.0896
GCAAGACUAAGACUAUCUCTT against Olfr1340 | inactive: 0.576
GCCUAGUGAAUACAUCACUTT against Cyp4f18 | inactive: -0.383
CCAGUUCCUUUGUAGGCAATT against Ctf1 | inactive: -2.36
GGCUUCCAUUACCAUGAUGTT against Olfr381 | inactive: 1.93
CCUAUGAAUGAUUUUGGUGTT against Pcdhb7 | inactive: 0.169
CCGAUCCAAUGCACCAAACTT against 2310008M10Rik | inactive: 0.396
GGUGGACUUCAUGUAGAUUTT against Ga17 | inactive: -1.45
GGAGACAUUGCUAUAUAUGTT against Hmgcs1 | inactive: -0.697
GGAAAACAUUGAAACAGUGTT against 2700038L12Rik | inactive: -0.348
GGAGUCCAAAUUCUUGGGUTT against Ik | inactive: -1
CCAACAGAACGACUGUGGGTT against D18Ertd653e | inactive: -1.02
GGGACUUAAUUUAUAGGGATT against Tagln2 | inactive: -0.129
GGGAGCUAGAUCUUUCAUCTT against A930016D02Rik | inactive: -0.974

Sequence | z-score
GGGUUUCUGAGGUUUAAUUTT against Arhgef3 | inactive: -0.000353
CCAGAGCUUAUUGAGAUGCTT against Myh4 | inactive: -0.0538
CCGAUUGAAAUAUGAAUCCTT against C330016O16Rik | inactive: 0.682
GCACCAAUCAAUGAGGAGATT against Was | inactive: -0.678
CCUCUCCAUCUUUGACUUATT against Olfr961 | inactive: -1.29
GGAUUUAAGUCAAAUCUCUTT against BC053073 | inactive: 1.21
CCUAUGAUUACUUGAACCCTT against Bak1 | inactive: 0.416
CGGCCAUAUAAUUUUGAAUTT against Tbx20 | inactive: -0.0257
GGUUUCGAUAGGAAUAUGATT against Pkp1 | inactive: 0.93
GGAAAACAUAUUUCAGCAGTT against C130032F08Rik | inactive: 1.22
GCUGUUUUCUUUCCAUUUCTT against Olfr981 | inactive: -0.116
GGAGAAGUUACUGAUGAGATT against D11Lgp1e | inactive: -0.176
GGUGGAAGAAGAAAUUGUCTT against Tpd52l2 | inactive: -0.594
CCCUGUAUAUUGCAUUUCCTT against Pcdhb21 | inactive: 0.769
GCCUUCUUAACUUCAUCACTT against Taar5 | inactive: 0.741
GGAGCAAAGCCUGUGAACUTT against Dffa | inactive: 0.856
CCUCUUACCGCUUUCAAUATT against Arf1 | inactive: 0.105
GCCUCCUAUAUAAACAUUGTT against Olfr1321 | inactive: -0.983
GGUGGCUAUUGAUGAAAACTT against Zfyve19 | inactive: 0.893
GCCUAACAUCUGUCCCUAUTT against D15Ertd405e | inactive: 1.67
CCUGAAGCGGAAGUGCAAATT against Wnt10b | inactive: 1.17
CCUUGUGACUCUAAGAAUATT against Bcl2l14 | inactive: 0.0613
GGUUUAGCAUCGUCCUAUATT against Crmp1 | inactive: -1.2
GGGUGCUAUUCUCCUUUUUTT against 9830134C10Rik | inactive: -0.59
GGGUAAUACUCUUUGGUGCTT against Olfr594 | inactive: 0.166
GGAAAAAGAUCCAGAUUUGTT against Adprh | inactive: 0.964

Seven entries drawn at random from those above, as already listed:
Sequence | z-score
CCUUGUGACUCUAAGAAUATT against Bcl2l14 | inactive: 0.0613
CCAGAGCUUAUUGAGAUGCTT against Myh4 | inactive: -0.0538
GGAGAAGUUACUGAUGAGATT against D11Lgp1e | inactive: -0.176
GGGUGCUAUUCUCCUUUUUTT against 9830134C10Rik | inactive: -0.59
GCCUUCUUAACUUCAUCACTT against Taar5 | inactive: 0.741
GCACCAAUCAAUGAGGAGATT against Was | inactive: -0.678
GGAAAAAGAUCCAGAUUUGTT against Adprh | inactive: 0.964

(further entries)

Sequence | z-score
GCUUCAGGCAAGGUUUAAATT against Ppp1r2 | inactive: 0.218
CCCAUCCAAUAAGCAAUUGTT against A330042H22 | inactive: 0.287
GCUAGGACAUUCAUUCAACTT against Gm1805 | inactive: 0.842
CCCAGACAGAUUAUGUAUCTT against E330040A16Rik | inactive: -0.451
GGGUUCAAUGCAGUCAUGATT against Slc25a20 | inactive: -1.28
GCUUUGUUAGUGUUAGUCUTT against Lamc1 | inactive: 0.771
GGAAGACUCGGUUCAUCAUTT against Pnliprp1 | inactive: 1.14
CCUCAUCGACAUAAUGAUUTT against Samhd1 | inactive: -1.42
GCUCUCAUGACUCCUUUUATT against Olfr99 | inactive: -0.694
GGUGGAUUAAGUCUCAAAATT against Pcdhb22 | inactive: 2.75
GCACAAGUCCCUACCACUUTT against Birc3 | inactive: -0.329
GGGAAGAAGCUAAAGAAGATT against Waspip | inactive: -0.419
CGUGGUAGUUAAUUGUUCATT against Map3k1 | inactive: -0.958
CCGUUUUCGCUUUGAGAAATT against Smarcad1 | inactive: -0.273
GGCCAAUGACCAGACCUUGTT against Hrh1 | inactive: 1.47
GCUAGAGGAACUAGAACCATT against Mrpl54 | inactive: -1.56
GAGUGUGAGGACUCAGACUTT against 5330440M15Rik | inactive: -2.4
GGAAAGUGAAAGUUAGUUUTT against Cbx6 | inactive: 0.431
GCACCAUGUAUACAAAAGATT against Pcdhb3 | inactive: 1.24
AGAUCGUGGACCAUGUGAATT against Nxph4 | inactive: 0.524
GCUUGAUGACUCUAAACCUTT against Runx2 | inactive: 0.119
GGCCCGAAACAAGAAAUCCTT against Ikbke | inactive: 0.255
GGUUUUGUAGGCAUGCUUGTT against Slc10a3 | inactive: 0.352
GGGCACAAGUACCAUCUUATT against Lxn | inactive: 0.152
GGAGAAUGUGUUGGUCAUUTT against C230090D14 | inactive: -0.298
GGAGCAUCUCAAACCUUCATT against 6030463G20Rik | inactive: -0.814

Sequence | z-score
GGGAAAAGUGGGAGAUUUUTT against Rpn1 | inactive: -0.688
GGAUGAACAUUAAACUUCGTT against Ctsb | inactive: 0.46
CCAUUCUGUGAUUACUGAGTT against Olfr787 | inactive: 0.177
GGACAGAUCGAAUGCCAGUTT against 4930402E16Rik | inactive: 2.8
GGCUCUCAAUGCCUACUUUTT against Pou6f1 | inactive: 0.624
CCAAUGUCUACUCAGAUCUTT against Rab11fip4 | inactive: -0.403
GCAAGUGCGACUGUAUCUGTT against Gdpd2 | inactive: 1.49
GCCUAGGUAGCUGUGUUAUTT against Gucy2f | inactive: -0.226
GGAUGACUUGUGAAUAUUUTT against Tnfsf7 | inactive: -0.362
CGACCCUACAGAGGACAUUTT against BB220380 | inactive: -0.412
GGUGAAUCCUUCGUGGACATT against Cml4 | inactive: -1.69
CCUGCUAAGUGAAUUUGUGTT against 0610011D08Rik | inactive: -1.15
GGCUAAAGAUCGCAUUCAGTT against Zdhhc6 | inactive: 0.138
GGCUUUAUUUAUCAGGAUCTT against Lsamp | inactive: 1.29
GCCUUGUGGUAUUUGAUCGTT against Fbxw9 | inactive: 0.673
GGAAAGCACCCAAGAAAUGTT against Gspt1 | inactive: 0.504
GGAAUGACAAGCAACCAGCTT against Foxp1 | inactive: -0.162
GGUGUGUUCCCAACUGGUGTT against Olfr1125 | inactive: 0.74
GGUUGUGUUAUUCAGAUCUTT against Olfr1316 | inactive: 0.134
CGCAUUCAAUUCCUUUCAATT against Aass | inactive: -0.108
GGACAUUUUUGACAUUGAATT against Masp1 | inactive: 0.0286
CCGCUUUGUCAGCAUGUGGTT against ORF61 | inactive: -0.208
CGGUGCUCUUACAUAGCAGTT against Appbp2 | inactive: -0.226
GAUUUAGCUUGGUGAACCGTT against F830014G06Rik | inactive: 1.42
GGAACUGCUCGACAAAGCUTT against MGC86034 | inactive: -0.393
GGACAGUAUAAAACUCCAATT against Apg3l | inactive: -0.849
